Assays:
human neutrophils = assay: ROS production by PMA-stimulated purified human neutrophils; type: cell-based; conditions: Neutrophil, average of several experiments, read-out: ROS Inhibition IC50
Method: Following blood withdrawal, blood was overlaid on 3% dextran in 0.9% NaCl in a 1:1 ratio and left at RT for 25 min to allow erythrocyte sedimentation. Residual RBCs were lysed by adding water for 30 sec and stopped by adding 2.5% BSA/5×PBS. WBCs were then diluted in 0.5% BSA/1×PBS and total number of cells was counted. Purification of pure neutrophils (HDNs) was done by overlaying blood after RBC sedimentation in a 1:1 ratio on Histopaque-1077. After 30 min centrifugation at 400 g, pure neutrophils were found at the bottom of the tube (pellet). Mononuclear cells (LDF—low density fraction) settle between the Histopaque-1077 and the 0.9% saline.
A high-throughput screen was performed to find molecules that inhibit ROS production by neutrophils. Extracted human neutrophils were purified and kept in culture. The cells were then exposed to various drugs and ROS production was monitored over time. Compounds that also scavenged hydrogen peroxide (H2O2) and/or lowered neutrophil ATP levels (reflecting toxicity) were removed. The top hits from the screen were selected for further analysis. […]
Bosutinib, Stelazine, Clomipramine, Abemaciclib, Afatanib and Dyclonine were selected for further characterization. […] PMA was again used to stimulate ROS production in neutrophils and the effects of the drugs were monitored at increasing concentration levels. […]

mouse neutrophils = assay: ROS inhibition in mouse neutrophils; type: cell-based; conditions: Neutrophil, average of several experiments
Text: Bosutinib, Stelazine, Clomipramine, Abemaciclib, Afatanib and Dyclonine were selected for further characterization. […] PMA was again used to stimulate ROS production in neutrophils and the effects of the drugs were monitored at increasing concentration levels. […] The molecules were all also effective in mouse neutrophils although to a generally lesser extent (FIG. 2B and Table 2).

## CN(C)CCCN1c2ccccc2CCc2ccc(Cl)cc21 [Clomipramine]
Human neutrophils
  IC50: 1000 nM
Mouse neutrophils
  IC50: 3500 nM

— US20240358711A1, “COMPOUNDS FOR NEUTROPHIL ROS INHIBITION” (IMMUNYX PHARMA LTD., priority 2021, published 2024)
